From paper PMC9462498
Changes are numbered by the printed parent chain. No constants are given. Whether binding was seen depends on the method and setting. In cells and extracts the contact can be indirect. Some entries that bind do so weakly or less than the wild type.

Protein sequences, listed by entry. Tags and fused reporters are not part of them. Residues count along the entry.
UniProt P09055, residues 21-798: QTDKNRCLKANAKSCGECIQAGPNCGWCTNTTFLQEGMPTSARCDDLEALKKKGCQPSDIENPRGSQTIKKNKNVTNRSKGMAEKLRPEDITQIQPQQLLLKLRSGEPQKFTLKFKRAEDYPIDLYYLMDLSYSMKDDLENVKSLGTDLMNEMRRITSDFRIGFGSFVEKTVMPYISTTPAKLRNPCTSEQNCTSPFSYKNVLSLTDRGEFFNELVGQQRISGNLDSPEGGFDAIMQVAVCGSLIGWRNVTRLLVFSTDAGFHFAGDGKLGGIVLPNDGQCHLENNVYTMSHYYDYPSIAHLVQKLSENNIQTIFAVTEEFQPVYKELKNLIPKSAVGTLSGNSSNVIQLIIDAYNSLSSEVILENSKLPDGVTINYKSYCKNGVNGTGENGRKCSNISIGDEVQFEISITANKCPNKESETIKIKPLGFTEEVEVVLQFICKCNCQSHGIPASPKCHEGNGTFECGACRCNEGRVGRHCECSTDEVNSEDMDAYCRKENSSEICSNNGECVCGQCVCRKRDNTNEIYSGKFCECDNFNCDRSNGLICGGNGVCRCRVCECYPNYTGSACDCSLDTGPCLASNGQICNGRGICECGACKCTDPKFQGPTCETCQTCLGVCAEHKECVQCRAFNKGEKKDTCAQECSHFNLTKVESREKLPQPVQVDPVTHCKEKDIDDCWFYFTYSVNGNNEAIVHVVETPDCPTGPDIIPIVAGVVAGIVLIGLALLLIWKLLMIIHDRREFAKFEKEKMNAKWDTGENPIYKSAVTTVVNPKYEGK

Key:
[1] = molecular target: T1, Semaphorin 7A (Sema7a), wild type, mouse (mouse (endogenous in mouse liver)) (UniProt Q9QUR8); assay: co-IP; anti-Sema7a precipitation from liver tissues of 10-week-old male WT and Sema7a^R145W homozygous mice; blots for integrin β1 and PKC-α
T1 sequence (chain, N-glycosylated (~130 kDa band)): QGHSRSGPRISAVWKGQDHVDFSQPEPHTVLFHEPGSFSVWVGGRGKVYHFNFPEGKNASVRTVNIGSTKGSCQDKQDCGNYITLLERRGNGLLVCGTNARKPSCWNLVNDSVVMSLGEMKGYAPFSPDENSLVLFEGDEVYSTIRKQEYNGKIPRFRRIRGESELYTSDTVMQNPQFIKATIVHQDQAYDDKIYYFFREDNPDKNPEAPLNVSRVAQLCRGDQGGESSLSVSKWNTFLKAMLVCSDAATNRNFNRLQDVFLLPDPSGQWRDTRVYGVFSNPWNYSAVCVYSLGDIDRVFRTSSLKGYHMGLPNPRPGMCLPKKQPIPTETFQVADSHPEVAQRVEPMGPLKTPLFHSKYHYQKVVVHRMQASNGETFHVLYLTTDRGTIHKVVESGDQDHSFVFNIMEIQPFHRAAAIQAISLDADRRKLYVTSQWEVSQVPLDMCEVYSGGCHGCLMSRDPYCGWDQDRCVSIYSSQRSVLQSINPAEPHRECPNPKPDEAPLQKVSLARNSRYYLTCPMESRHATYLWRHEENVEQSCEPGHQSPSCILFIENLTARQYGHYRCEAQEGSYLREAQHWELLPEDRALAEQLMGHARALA

[2] = molecular target: T2, Semaphorin 7A R145W mutant (Sema7a^R145W), mouse (mouse (endogenous in mouse liver and primary hepatocytes)) (UniProt Q9QUR8); assay: as above
T2 sequence (chain, N-glycosylated (~130 kDa band)): T1 sequence (chain, N-glycosylated (~130 kDa band)) with R101W

integrin β1, mouse (from UniProt P09055 21-798) (receptor)
binding [1]: binds | binding [2]: binds
